No constants are given. Whether binding was seen depends on the method and setting. Some binding calls cover weakened binding; strength is not graded here. Sequences can lack the tags named with a protein.
Assays:
Experiment in all cases: flow cytometry on cells; HEK cells cotransfected with plasmids for EGFP and RAE-1δ, RAE-1ε or RAE-1γ, 3 days of culture; incubated with increasing concentrations of NKG2D/Fc (15 min on ice, PBS 1% FCS, 0.02% sodium azide), then PE-labeled anti-human IgG-Fc; read-out: PE MFI on EGFP positive cells minus PE MFI on EGFP negative cells; only the binder purified
[1] = target: T1, RAE-1γ (mouse) (UniProt O08604)
T1 sequence: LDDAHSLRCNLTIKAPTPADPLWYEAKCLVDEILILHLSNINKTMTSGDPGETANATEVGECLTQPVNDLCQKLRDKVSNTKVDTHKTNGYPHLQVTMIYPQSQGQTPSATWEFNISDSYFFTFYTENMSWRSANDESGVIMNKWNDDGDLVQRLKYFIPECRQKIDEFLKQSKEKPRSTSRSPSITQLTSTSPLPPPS

[2] = target: T2, RAE-1δ (mouse) (UniProt Q9JI58)
T2 sequence: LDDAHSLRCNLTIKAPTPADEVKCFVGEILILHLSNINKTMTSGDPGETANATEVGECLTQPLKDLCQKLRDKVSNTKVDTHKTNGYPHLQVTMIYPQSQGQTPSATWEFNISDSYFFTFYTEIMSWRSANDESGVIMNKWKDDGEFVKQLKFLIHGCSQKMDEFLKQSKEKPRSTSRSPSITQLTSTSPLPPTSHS

[3] = target: T3, RAE-1ε (mouse) (UniProt Q9CZQ6)
T3 sequence: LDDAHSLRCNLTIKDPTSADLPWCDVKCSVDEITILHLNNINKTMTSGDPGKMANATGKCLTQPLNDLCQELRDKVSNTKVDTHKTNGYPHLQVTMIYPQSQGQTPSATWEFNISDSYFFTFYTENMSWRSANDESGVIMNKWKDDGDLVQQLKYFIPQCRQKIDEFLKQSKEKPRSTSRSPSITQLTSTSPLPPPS

B1: mouse recombinant NKG2D/Fc chimera (Fc fusion, UniProt O54709 90-232)
chain: FKETFQPVLCNKEVPVSSREGYCGPCPNNWICHRNNCYQFFNEEKTWNQSQASCLSQNSSLLKIYSKEEQDFLKLVKSYHWMGLVQIPANGSWQWEDGSSLSYNQLTLVEIPKGSCAVYGSSFKAYTEDCANLNTYICMKRAV
binding [1]: binds | binding [2]: binds weakly | binding [3]: binds

Reference: article PMC2957426
